Reference: PubChem BioAssay AID540276 (National Center for Advancing Translational Sciences (NCATS), 2011)
Values joined by “and” are separate entries in the source; they are usually repeats but may differ in a detail not shown here. Equal values may be shown once. The campaign covered roughly 300,000 compounds. About 5,400 (1.8%) were called active. This list was built around the results that the source calls inconclusive (neither active nor inactive); the mix of calls is not that of the screen. Calls come from the whole dose curve; tested in HEK293 cells. A potency beside an inconclusive call is a rough fit, not a confirmed value.

Test: qHTS for inhibitors of binding or entry into cells for Marburg Virus
Conditions: Marburg virus pseudotyped entry inhibition, cell reporter; series mostly up to 37.8 µM
Potency is the fitted concentration of half-maximal effect.

Row | SMILES | Potency
1 | C#CC(CC)(CC)NC(=O)c1ccc(Br)s1 | inconclusive: 11.2 µM [inhibitor, partial curve, poor fit]
2 | CC(Sc1nnc(-c2cccs2)n1-c1ccccc1)C(=O)NCc1ccco1 (stereo not drawn) | inactive
3 | Cc1ccc(NC(=S)Nc2ccccn2)c(C)c1 | active: 3.98 µM
4 | CCOC(=O)N1CCN(Cc2nc3cc(NC(=O)C(C)C)ccc3n2CC)CC1 | inconclusive: 35.5 µM [inhibitor, single point]
5 | C/C(=N/NC(=O)c1cccs1)c1ccc(NC(=O)COc2ccc(Cl)cc2Cl)cc1 | inconclusive: 2.51 µM [inhibitor, full curve, poor fit]
6 | CC(=O)N1CCc2cc(S(=O)(=O)NCC(=O)NCc3ccccc3Cl)ccc21 | inactive
7 | COc1ccccc1C(CNC(=O)C(C)(C)Oc1ccc(Cl)cc1)N1CCCC1 (stereo not drawn) | inconclusive: 11.2 µM [inhibitor, partial curve]
8 | CC(C)OC(=O)NCCOC(=O)Nc1ccc(Cl)c(Cl)c1 | inconclusive: 18.3 µM [inhibitor, single point]
9 | O=C(CCS(=O)(=O)c1ccccc1Cl)NC1CCCCCC1 | inconclusive: 11.2 µM [activator, partial curve, poor fit]
10 | CCn1c(=O)c2c(nc(SCC(=O)NC3CCCC3)n2C)n(C)c1=O | inactive
11 | Cc1cccc(N2CCN(C(=O)c3cccn4c(=O)c5c(C)c(C)sc5nc34)CC2)c1C | inconclusive: 16.4 µM [inhibitor, partial curve, poor fit]
12 | COc1ccc(CCn2c(=N)c(C(=O)NC3CCCC3)cc3c(=O)n4ccccc4nc32)cc1 | inactive
13 | O=C(NCCOc1ccccc1F)c1cc([N+](=O)[O-])ccc1N1CCOCC1 | inconclusive: 6.31 µM [inhibitor, partial curve, poor fit]
14 | Oc1ccc(N2CCN(C(c3cccs3)c3nnnn3CCc3ccccc3)CC2)cc1 (stereo not drawn) | inconclusive: 35.5 µM [inhibitor, single point]
15 | COc1ccc(CN(C)C(=O)/C=C/c2ccc(S(=O)(=O)N3CCCCCC3)cc2)cc1 | inconclusive: 35.5 µM [inhibitor, single point]
16 | CNc1nc(NCCOC23CC4CC(CC(C4)C2)C3)nc(OCC(F)(F)F)n1 | inconclusive: 35.5 µM [inhibitor, single point]
17 | COc1ccc(/C=C/C(=O)NC(=S)NNC(=O)c2cccs2)cc1OC | inconclusive: 35.5 µM [inhibitor, single point]
18 | COc1ccc(-c2c(C)[nH]n3c(=O)c(Cc4ccccc4)c(C)nc23)cc1OC | active: 7.94 µM
19 | CCCc1nnc(NC(=O)Cc2coc3c(C)c(C)ccc23)s1 | inactive
20 | Cc1onc(-c2ccccc2Cl)c1C(=O)N1CCCCC1 | inconclusive: 8.91 µM [inhibitor, partial curve, poor fit]
21 | O=C(CCl)N1N=C(c2cccs2)CC1c1ccco1 (stereo not drawn) | inconclusive: 0.0891 µM [inhibitor, full curve, poor fit]
22 | Cc1cccc(OCC(=O)Nc2ccc3c(c2)nc(CN2CCCCC2)n3C)c1 | inconclusive: 15.8 µM [inhibitor, single point] and inconclusive: 7.08 µM [inhibitor, partial curve, poor fit]
23 | COC(=O)c1ccc2c(=O)n(Cc3ccc(C(=O)NC(C)C)cc3)c(=S)[nH]c2c1 | inconclusive: 2.82 µM [inhibitor, partial curve, poor fit]

Reprinted from above, four compounds:
Row | SMILES | Potency
16 | CNc1nc(NCCOC23CC4CC(CC(C4)C2)C3)nc(OCC(F)(F)F)n1 | inconclusive: 35.5 µM [inhibitor, single point]
17 | COc1ccc(/C=C/C(=O)NC(=S)NNC(=O)c2cccs2)cc1OC | inconclusive: 35.5 µM [inhibitor, single point]
18 | COc1ccc(-c2c(C)[nH]n3c(=O)c(Cc4ccccc4)c(C)nc23)cc1OC | active: 7.94 µM
19 | CCCc1nnc(NC(=O)Cc2coc3c(C)c(C)ccc23)s1 | inactive

Following part

Row | SMILES | Potency
24 | O=S(=O)(c1ccc(-c2csc(=Nc3ccc(F)cc3)n2CCCCCCO)cc1)N1CCCC1 | inconclusive: 8.91 µM [inhibitor, partial curve, poor fit]
25 | O=C(NC12CC3CC(CC(C3)C1)C2)OC1CN2CCC1CC2 (stereo not drawn) | inconclusive: 10 µM [inhibitor, partial curve]
26 | C/C(=N\N=C(N)N)c1ccc(Cl)cc1Cl | inconclusive: 35.5 µM [inhibitor, single point]
27 | C/C(=N\NC(=O)CCC(=O)Nc1ccc(C)c(C)c1)c1cccs1 | inconclusive: 3.98 µM [activator, partial curve, poor fit]
28 | Cc1nc2ccc(S(=O)(=O)NC(CC(C)C)C(=O)NCc3ccc(Cl)cc3)cc2s1 (stereo not drawn) | inconclusive: 6.31 µM [inhibitor, single point]
29 | N#Cc1cc2c(nc1SCC(=O)Nc1nccs1)CCCCC2 | inconclusive: 3.66 µM [inhibitor, full curve]
30 | CCCc1nc2ccccc2c(=O)n1CCc1ccccc1 | inconclusive: 35.5 µM [inhibitor, single point]
31 | Cc1ccsc1C(=O)NCC(=O)OCc1ccccc1 | inconclusive: 0.631 µM [activator, full curve, poor fit]
32 | Cc1ccc(-c2cc(C(=O)NCCCN3CCOCC3)c3ccccc3n2)cc1C | inactive
33 | CCc1ccc(NC(=O)Cn2nc(C(=O)O)c3ccccc3c2=O)cc1 | inactive
34 | CN(C)CCCN(C(=O)c1ccc(S(=O)(=O)N2CCc3ccccc3C2)cc1)c1nc2ccc(F)cc2s1 | inconclusive: 22.4 µM [inhibitor, single point]
35 | Cc1cnc(NC(=O)COc2ccccc2)s1 | inconclusive: 13 µM [inhibitor, single point]
36 | COc1cc2c(cc1OC)C(C)N(C(=O)c1ccc(C)o1)CC2 (stereo not drawn) | inconclusive: 10 µM [inhibitor, partial curve, poor fit]
37 | NC(=O)NC(=O)COC(=O)CN1C(=O)C2CCCCC2C1=O (stereo not drawn) | inconclusive: 5.62 µM [activator, single point]
38 | CCn1c(C)cc2c(c1=O)C(c1ccccc1)C(C(=O)OC)=C(N)O2 (stereo not drawn) | inactive
39 | C[N+](C)(C)CCC(=O)c1cccc2ccccc12 | active: 4.47 µM
40 | Cn1nnc(NC(=O)c2cccs2)n1 | inactive
41 | CCCC1=C(C(=O)OCC)C(c2ccc(OC)c(CSc3ccccn3)c2)C(C#N)=C(N)O1 (stereo not drawn) | inactive
42 | CCN(CC)c1ccc(S(=O)(=O)N(CC)CC)cc1NC(=O)c1cccnc1 | inactive
43 | CCCCCC(O)(c1ccc(OCC)cc1)C(CN1CCOCC1)c1ccccc1 (stereo not drawn) | inconclusive: 4.47 µM [inhibitor, full curve, poor fit]
44 | CN(C)/C=C/C(=O)Oc1ccc(Cl)cc1Cl | inconclusive: 31.6 µM [activator, single point]
45 | CCOC(=O)c1c(C)oc2c1cc(O)c1ccccc12 | inactive
46 | CCN1CCN(c2cc(C)c3cc(NC(=O)/C=C/c4cccc(OC)c4OC)ccc3n2)CC1 | active: 7.08 µM

3 structures from above, sorted by length of the SMILES, rising.
Row | SMILES | Potency
25 | O=C(NC12CC3CC(CC(C3)C1)C2)OC1CN2CCC1CC2 (stereo not drawn) | inconclusive: 10 µM [inhibitor, partial curve]
32 | Cc1ccc(-c2cc(C(=O)NCCCN3CCOCC3)c3ccccc3n2)cc1C | inactive
24 | O=S(=O)(c1ccc(-c2csc(=Nc3ccc(F)cc3)n2CCCCCCO)cc1)N1CCCC1 | inconclusive: 8.91 µM [inhibitor, partial curve, poor fit]

Following part:

Row | SMILES | Potency
47 | O=C(CSc1nnc(NC(=O)c2ccccc2)s1)NCc1ccco1 | inconclusive: 31.6 µM [inhibitor, single point]
48 | CCN(CC)S(=O)(=O)c1cccc(NC(=O)CNc2cccc(S(=O)(=O)N3CCOCC3)c2)c1 | inconclusive: 10 µM [inhibitor, partial curve, poor fit]
49 | N#Cc1ccc(Cl)cc1NC(=O)COC(=O)[C@H](CCC(N)=O)NC(=O)c1ccc(F)cc1 | inconclusive: 2.51 µM [activator, partial curve, poor fit]
50 | CCN(C(=S)Nc1cc(S(=O)(=O)N2CCOCC2)ccc1Cl)c1cccc2ccccc12 | inactive
51 | COc1ccccc1S(=O)(=O)Cc1ccc(C(=O)N2CCN(c3ccccc3)CC2)o1 | inactive
52 | CCc1ccccc1NC(=O)C1CCCN(c2ncccn2)C1 (stereo not drawn) | inactive
53 | CC(=O)/C(N=Nc1cccc(C(F)(F)F)c1)=C(\C)O | inactive
54 | CCOc1ccc(NCc2nnc(SCC(=O)Nc3nc(-c4ccccc4)cs3)n2-c2ccccc2)cc1 | inconclusive: 20 µM [inhibitor, partial curve, poor fit]
55 | NC(=O)c1c(-c2ccccc2)oc2ccc(O)cc12 | inactive
56 | O=C(Nc1cccc2ccccc12)c1ccc([N+](=O)[O-])s1 | inactive
57 | Cc1ccc(-c2noc(CN(C(=O)CCCCCN3C(=O)c4ccccc4C3=O)C(C)C)n2)cc1 | inconclusive: 14.1 µM [inhibitor, single point]
58 | O=C(CSc1nccc(=O)[nH]1)Nc1ccc(N2CCOCC2)c(Cl)c1 | inconclusive: 6.31 µM [inhibitor, single point]
59 | O=C(NC(=S)Nc1cc(S(=O)(=O)N2CCOCC2)ccc1N1CCOCC1)c1ccco1 | inactive
60 | Cc1c(C(=O)Nc2nc3ccccc3[nH]2)oc2ccccc12 | inconclusive: 12.6 µM [inhibitor, partial curve, poor fit]
61 | COc1ccc(C2C(C(=O)Nc3cccnc3)=C(C)Nc3nc(SCc4ccccc4)nn32)cc1 (stereo not drawn) | inactive
62 | Brc1cc(Cc2nnc(-c3ccccc3)o2)c(Br)s1 | inconclusive: 0.501 µM [inhibitor, full curve, poor fit]
63 | O=C(CSc1nnc2c(n1)[nH]c1ccccc12)Nc1nncs1 | inactive
64 | COC(=O)C1=C(C)N=C2SC(C#N)=C(N)N2C1c1ccc(OC)cc1 (stereo not drawn) | inactive
65 | Cc1ccc(C)c(NC(=O)C2CCCN2S(=O)(=O)c2ccc3c(c2)n(C)c(=O)c(=O)n3C)c1 (stereo not drawn) | inconclusive: 29.1 µM [activator, single point] and inconclusive: 10 µM [inhibitor, partial curve, poor fit]
66 | COc1ccc(-c2nc(CN3CCCCC3c3nccn3C)c(C)o2)c(C)c1C (stereo not drawn) | inconclusive: 35.5 µM [inhibitor, single point]
67 | COC(=O)c1ccc(CSc2nnc(-c3c[nH]c4ccccc34)n2-c2ccccc2)cc1 | inconclusive: 14.1 µM [inhibitor, partial curve, poor fit]
68 | CC(=O)NC(C)c1nc2ccccc2n1Cc1ccccc1Cl (stereo not drawn) | inactive
